Consider one molecule from publication PMC10352137, “Readout of histone methylation by Trim24 locally restricts chromatin opening by p53” (Nature Structural & Molecular Biology, 2023).

Sequences of proteins named here, by UniProt entry; tags and fusion partners are left off.
UniProt P02340: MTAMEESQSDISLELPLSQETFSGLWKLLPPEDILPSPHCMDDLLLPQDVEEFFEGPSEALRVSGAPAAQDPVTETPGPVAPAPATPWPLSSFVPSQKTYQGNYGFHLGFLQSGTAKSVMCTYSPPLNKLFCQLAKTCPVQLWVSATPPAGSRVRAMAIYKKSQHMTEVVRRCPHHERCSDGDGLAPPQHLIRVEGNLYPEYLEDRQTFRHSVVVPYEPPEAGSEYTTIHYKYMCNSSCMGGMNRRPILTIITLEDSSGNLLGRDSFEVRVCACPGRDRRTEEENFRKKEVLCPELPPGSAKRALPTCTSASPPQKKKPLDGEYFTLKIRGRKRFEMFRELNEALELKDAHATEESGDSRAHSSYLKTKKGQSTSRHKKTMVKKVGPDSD

This experiment deals with V5- and dTAG-tagged p53 (dp53 allele) (mouse) (UniProt P02340). Put plainly: affinity purification with mass spectrometry; anti-V5 magnetic beads on whole-cell extracts of dp53 mES cells cross-linked with 0.1% formaldehyde; lysis in 1% SDS with benzonase, washes with 500 mM NaCl, 1% Triton X-100, 0.1% SDS; untreated and doxorubicin-activated cells, against p53-degraded cells (dTAG13) as mock.

These are yes or no findings as the source states them, for the method shown. In cells and extracts the contact can be indirect. A yes stands for co-enrichment or nearness to the bait. Other partners may have been found.

B1: Trim24 (endogenous, mES cells) (protein, UniProt Q64127 1-1051)
chain: MEVAVEKAAAAAAPAGGPAAAAPSGENEAESRQGPDSESGGEASRLNLLDTCAVCHQNIQSRVPKLLPCLHSFCQRCLPAPQRYLMLTAPALGSAETPPPAPAPAPAPGSPAGGPSPFATQVGVIRCPVCSQECAERHIIDNFFVKDTTEVPSSTVEKSNQVCTSCEDNAEANGFCVECVEWLCKTCIRAHQRVKFTKDHTVRQKEEVSPEAVGVTSQRPVFCPFHKKEQLKLYCETCDKLTCRDCQLLEHKEHRYQFIEEAFQNQKVIIDTLITKLMEKTKYIKYTGNQIQNRIIEINQNQKQVEQDIKVAIFTLMVEINKKGKALLHQLESLAKDHRMKLMQQQQEVAGLSKQLEHVMHFSKWAVSSGSSTALLYSKRLITYRLRHLLRARCDASPVTNTTIQFHCDPSFWAQNIINLGSLVIEDKESQPQMPKQNPVVEQSSQPPGGLPSNQLSKFPTQISLAQLRLQHIQQQVMAQRQQVQRRPAPVGLPNPRMQGPIQQPSISHQHPPPRLINFQNHSPKPNGPVLPPYPQQLRYSPSQNVPRQTTIKPNPLQMAFLAQQAIKQWQISSVQAPPTTASSSSSTPSSPTITSAAGYDGKAFSSPMIDLSAPVGGSYNLPSLPDIDCSSTIMLDNIARKDTGVDHAQPRPPSNRTVQSPNSSVPSPGLAGPVTMTSVHPPIRSPSASSVGSRGSSGSSSKPAGADSTHKVPVVMLEPIRIKQENSGPPENYDFPVVIVKQESDEESRPQNTNYPRSILTSLLLNSSQSSASEETVLRSDAPDSTGDQPGLHQENSSNGKSEWSDASQKSPVHVGETRKEDDPNEDWCAVCQNGGELLCCEKCPKVFHLTCHVPTLTNFPSGEWICTFCRDLSKPEVDYDCDVPSHHSEKRKSEGLTKLTPIDKRKCERLLLFLYCHEMSLAFQDPVPLTVPDYYKIIKNPMDLSTIKKRLQEDYCMYTKPEDFVADFRLIFQNCAEFNEPDSEVANAGIKLESYFEELLKNLYPEKRFPKVEFRHEAEDCKFSDDSDDDFVQPRKKRLKSTEDRQLLK
For B1, the binding result was “binds”.
